Measurements as given in article PMC11225310.
Results are given in words; binding and its absence hold for the method and conditions named. Binding seen in cells or lysates may run through a third protein. These calls come from enrichment with a bait or labelling near it, and not all partners need be listed.

Sequences of proteins named here, by UniProt entry; tags and fusion partners are left off.
UniProt Q14680: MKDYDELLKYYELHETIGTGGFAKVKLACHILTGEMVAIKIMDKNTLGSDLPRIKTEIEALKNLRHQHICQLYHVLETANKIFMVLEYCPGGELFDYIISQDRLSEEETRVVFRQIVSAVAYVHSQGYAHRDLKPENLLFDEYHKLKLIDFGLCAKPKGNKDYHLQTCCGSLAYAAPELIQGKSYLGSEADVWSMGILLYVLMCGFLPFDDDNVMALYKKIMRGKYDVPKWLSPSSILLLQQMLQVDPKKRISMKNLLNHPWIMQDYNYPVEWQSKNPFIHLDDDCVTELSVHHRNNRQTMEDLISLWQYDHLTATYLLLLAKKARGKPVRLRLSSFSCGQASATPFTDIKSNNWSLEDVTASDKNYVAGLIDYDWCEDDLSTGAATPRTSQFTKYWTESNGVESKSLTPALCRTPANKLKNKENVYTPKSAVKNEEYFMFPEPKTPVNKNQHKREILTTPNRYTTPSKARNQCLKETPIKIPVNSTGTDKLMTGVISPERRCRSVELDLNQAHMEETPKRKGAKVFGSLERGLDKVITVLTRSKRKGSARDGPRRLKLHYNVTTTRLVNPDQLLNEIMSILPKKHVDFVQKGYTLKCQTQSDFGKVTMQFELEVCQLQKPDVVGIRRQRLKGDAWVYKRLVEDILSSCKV
UniProt P40763: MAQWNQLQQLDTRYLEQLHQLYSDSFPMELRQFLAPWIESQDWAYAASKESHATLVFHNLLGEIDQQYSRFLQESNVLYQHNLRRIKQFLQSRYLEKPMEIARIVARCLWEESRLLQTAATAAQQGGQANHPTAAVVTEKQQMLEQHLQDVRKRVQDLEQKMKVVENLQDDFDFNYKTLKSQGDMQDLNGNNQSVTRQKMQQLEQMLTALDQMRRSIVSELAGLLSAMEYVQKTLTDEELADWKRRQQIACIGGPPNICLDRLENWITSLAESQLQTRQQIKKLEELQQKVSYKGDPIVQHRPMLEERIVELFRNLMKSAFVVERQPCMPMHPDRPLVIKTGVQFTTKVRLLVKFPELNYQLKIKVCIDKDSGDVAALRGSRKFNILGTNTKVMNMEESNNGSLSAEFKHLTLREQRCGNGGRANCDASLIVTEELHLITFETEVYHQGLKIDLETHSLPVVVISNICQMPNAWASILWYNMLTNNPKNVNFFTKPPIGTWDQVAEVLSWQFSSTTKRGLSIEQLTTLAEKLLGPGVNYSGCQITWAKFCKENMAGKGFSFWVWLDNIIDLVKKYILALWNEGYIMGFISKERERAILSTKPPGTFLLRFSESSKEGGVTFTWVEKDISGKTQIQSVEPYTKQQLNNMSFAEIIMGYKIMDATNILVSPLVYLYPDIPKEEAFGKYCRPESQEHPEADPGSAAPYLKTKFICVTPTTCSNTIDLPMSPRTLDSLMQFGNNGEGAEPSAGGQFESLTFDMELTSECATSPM

Biological target: FLAG-tagged MELK (UniProt Q14680)
Test: affinity purification with mass spectrometry; lysate of 293T cells expressing FLAG-MELK on a FLAG column, 4 °C for 4 h; IP buffer (20 mM Tris-HCl pH 8.0, 150 mM NaCl, 2 mM EDTA, 1% Nonidet P-40); eluted with FLAG peptides; SDS-PAGE, silver staining, LC-MS/MS of gel bands; compared with vector-transfected cells

binding: binds
Substance: STAT3 (in 293T cells) (from UniProt P40763 1-770)
